Test results reported in US20240200085A1.
Results are given in words; binding and its absence hold for the method and conditions named. Some entries that bind do so weakly or less than the wild type. Where a sequence is shown, tags or fusion partners need not be part of it.

Columns and labels:
[1] = target: Lotus NFR5 kinase (residues A276-T563) (Lotus japonicus); assay: analytical size exclusion chromatography (Superdex 200 increase 10/300), 1:1.5 molar mix, co-elution confirmed by SDS-PAGE
[2] = target: Lotus NFR5 kinase (residues A276-T563) (Lotus japonicus); assay: phage display selection and ELISA screen on coated NFR5 kinase, then analytical SEC (FIGS. 1A-1C)

- binding [1]: binds
- binding [2]: binds
B1: NbNFR5 (VHH towards NFR5) with C-terminal non-cleavable 6x-histidine tag (VHH, not shown: small tags and cut ends)
VHH: QVQLVETGGGLVQDGDSLRLSCAASGFTFSNYYMSWVRQAPGKGLEWVSGITSGGTYTYDAVKDRFTISRDNAKNTLYLQMNSLKPEDTAVYYCAKGGTSVAVRGFYDYRGQGTQVTVSS
